Values quoted from earlier work in US9155723B2, “Anti-CXCR4 as a sensitizer to cancer therapeutics” (THE GENERAL HOSPITAL CORPORATION, priority 2010, dated 2015).
At least one compound was matched to its structure with a doubt left.

Tested on: CXCL12
Settings: advanced HCC; P < 0.001; cited from earlier work

CCN(CC)CCNC(=O)c1c(C)[nH]c(/C=C2\C(=O)Nc3ccc(F)cc32)c1C [sunitinib]
circulating CXCL12: therapy increases
